# Values from PubChem BioAssay AID504786 (Drosophila RNAi Screening Center, 2011)
# Screen: 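Knock-downs reducing HIF reporter induction by the iron chelator DFO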 (primary screen)
# System: Drosophila S2 cells with a stable HIF luciferase reporter
# Reagents: long dsRNA against Drosophila genes, about 0.2 µg dsRNA per well of a 384-well plate
# Duration: three days of knock-down, then 20 h of DFO before reading
# Treatment: desferrioxamine (DFO) at 100 µM, an iron chelator that mimics hypoxia, for 20 h
# Detection: 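Firefly luciferase driven by the mouse ldh-a hypoxia-response element, measured after 20 h of 100 µM DFO; z-scores per plate, higher means more signal lost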
# Direction: z-score: higher = stronger loss of HIF reporter signal
# The screen tested about 21,000 reagents; this is an unselected part of those with a known target gene and a result. 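Primary screen; positive scores mean lost reporter signal, so the sign may be inverted from the usual convention.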 Reagent sequences are not shown.
Gene,DRSC id,"z-score, replicate 1","z-score, replicate 2","z-score, replicate 3","z-score, replicate 4"
Taf10b (TBP-associated factor 10b),DRSC00792,0.3,0.1,,
atos (atossa),DRSC07318,0.2,-0.2,,
CG12909,DRSC06224,-0.2,-0.1,,
Dpy-30L1 (Dpy-30-like 1),DRSC02959,-0.3,-0.5,,
Not11 (CCR4-NOT transcription complex subunit 11),DRSC04204,-0.2,-0.1,,
"SPARC (Secreted protein, acidic, cysteine-rich)",DRSC14123,-0.4,-0.3,,
CG9578,DRSC20694,-0.3,-0.7,,
CG10505,DRSC04075,-0.3,-0.5,,
Ir67b (Ionotropic receptor 67b),DRSC09876,-0.2,0.2,,
CG6051,DRSC15956,0.1,-0.3,,
CG5961,DRSC15927,-0.4,-0.4,,
Tomosyn,DRSC19365,-0.2,-0.7,,
Tomosyn,DRSC19692,-0.1,-0.3,1,-0.3
Tomosyn,DRSC19782,-0.3,0.1,,
Tomosyn,DRSC19842,-0.2,-0.3,0.7,-0.2
RNaseX25 (Ribonuclease X25),DRSC11259,-0.3,-0.5,,
Obp83a (Odorant-binding protein 83a),DRSC12362,0.4,0.5,,
CG17760,DRSC06694,-0.4,-0.2,,
elav (embryonic lethal abnormal vision),DRSC18772,-0.3,-0.6,,
CG12106,DRSC17805,-0.1,-0.5,,
CG13850,DRSC14700,-0.3,-0.6,,
CG12868,DRSC06207,-0.2,0.1,,
CG43980,DRSC11500,-0.5,-1.1,,
CG43980,DRSC11646,-0.4,-0.6,,
rdgC (retinal degeneration C),DRSC11387,-0.1,0.3,,
Vlet (Valette),DRSC19845,-0.1,-0.7,,
CG16896,DRSC04284,0.1,-0.4,,
gammaSnap1 (gamma Soluble NSF attachment protein 1),DRSC04686,-0.2,-0.4,,
Asph (Aspartyl beta-hydroxylase),DRSC06783,-0.3,-0.5,,
Asph (Aspartyl beta-hydroxylase),DRSC07171,-0.2,0.1,,
pic (piccolo),DRSC16639,0.9,1.5,,
GstD11 (Glutathione S transferase D11),DRSC15251,-0.3,-0.4,,
L (Lobe),DRSC06666,-0.2,0.4,,
L (Lobe),DRSC06668,-0.2,-0.1,,
CG5757,DRSC06951,-0.1,-0.1,,
Kdm5 (Lysine demethylase 5),DRSC03133,-0.4,-0.7,,
IRSp53 (Insulin receptor substrate 53 kDa),DRSC10891,-0.2,-0.1,,
CG4116,DRSC18348,-0.3,-0.9,,
CG11162,DRSC19391,-0.2,0.1,,
Mlc1 (Myosin alkali light chain 1),DRSC16740,-0.4,-0.4,,
ClC-c (Chloride channel-c),DRSC10499,-0.4,-0.9,,
Fic (Fic domain-containing protein),DRSC03247,-0.3,-0.6,,
IPIP (Inositol phosphatase interacting protein),DRSC02164,-0.4,-0.6,,
CG4036,DRSC02735,-0.3,-0.9,,
Mo25,DRSC11224,1.8,1.4,,
pan (pangolin),DRSC17176,-0.3,-0.2,,
CG5347,DRSC19942,-0.2,0,,
Cpr76Ba (Cuticular protein 76Ba),DRSC11060,-0.3,0,,
CG4250,DRSC04455,-0.2,-0.2,,
mRpS21 (mitochondrial ribosomal protein S21),DRSC12965,0.4,0.2,,
CG11983,DRSC14458,-0.2,0,,
ato (atonal),DRSC16904,0,0.4,,
Strn-Mlck (Stretchin-Mlck),DRSC05032,-0.2,-0.4,,
Strn-Mlck (Stretchin-Mlck),DRSC05598,-1.4,-0.3,,
Strn-Mlck (Stretchin-Mlck),DRSC07471,-0.3,-0.1,,
Snoo (Sno oncogene),DRSC01008,-0.2,-0.4,,
Snoo (Sno oncogene),DRSC03004,-0.3,-0.5,,
Snoo (Sno oncogene),DRSC03035,-0.4,-1.3,,

Only “z-score, replicate 2”, for 9 of the entries above:
CG11162 [DRSC19391] = 0.1
Mlc1 (Myosin alkali light chain 1) [DRSC16740] = -0.4
ClC-c (Chloride channel-c) [DRSC10499] = -0.9
Fic (Fic domain-containing protein) [DRSC03247] = -0.6
IPIP (Inositol phosphatase interacting protein) [DRSC02164] = -0.6
CG4036 [DRSC02735] = -0.9
Mo25 [DRSC11224] = 1.4
pan (pangolin) [DRSC17176] = -0.2
CG5347 [DRSC19942] = 0
